SMILES strings stand for the structures. This is one part of the list. Further columns of the screen follow, without active or inactive calls. Compounds called inactive in the main read-out are mostly missing here. Words in brackets tell the shape of the fitted curve; partial curves, single points and poor fits give uncertain potencies.

As a reminder, the AC50 is the midpoint of the concentration-response curve, whichever way the signal moves.

The nature of this assay: qHTS Assay to Find Inhibitors of Chronic Active B-Cell Receptor Signaling. Particulars: ABC-DLBCL IkBa-CBG/CBR reporter, luminescence ratio (green luciferase fused to IkBa over red control in TMD8 lymphoma cells), 4 h. The method in brief:
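TMD8 ABC-DLBCL cells carrying doxycycline-inducible green luciferase fused to IkappaBalpha plus unfused red luciferase were exposed to compounds (up to 46 uM) for 4 hrs at 37C. Activity came from the overlap-corrected green/red luminescence ratio.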
On the technique in general: Quantitative high-throughput screening tests each substance at several concentrations.

Where [1] appears, read: measured here: CBR red luminescence, cell number.
Where [2] appears, read: measured here: IkBa-CBG green luminescence.

On to `CCc1ccc(/C=N/n2c(C3CCCCC3)n[nH]c2=S)cc1`, for which, under setting [1], the AC50 was 14.1 µM [rising, partial curve, poor fit].
`COc1ccc(OC)c(S(N)(=O)=O)c1`: the AC50 under setting [1] is 4.11 µM [rising, partial curve, poor fit].
`COc1ccc(C2CC(c3ccc(Br)cc3)=NN2C(=O)CSC2=NCCS2)cc1` (configuration not stated): the AC50 under setting [1] is 4.61 µM [falling, partial curve, poor fit].
With `Clc1ccc(Nc2nc(C3CC3)cs2)cc1`, under setting [1], the AC50 was 0.58 µM [rising, full curve, poor fit].
As to `COC(=O)N/N=C/c1cn(CCOc2ccccc2)c2ccccc12`, under setting [1], the concentration at half-maximal activity (AC50) was 11.2 µM [rising, partial curve, poor fit].
Take `CCOc1nc(C)ccc1-c1noc(-c2ccccc2OC)n1`: the AC50 under setting [1] is 3.16 µM [rising, full curve].
Same read-out and setting: next, `COc1ccc(NC(=O)CCNC(=O)Cn2ccc3ccccc3c2=O)c(OC)c1`: 0.0731 µM [rising, full curve, poor fit]; `c1csc(-c2nc(N3CCOCC3)c3ccccc3n2)c1`: 5.62 µM [falling, full curve, poor fit]; `CCN1CCCC1Cn1cnc2c([nH]c3ccc(OC)cc32)c1=O` (configuration not stated): 7.08 µM [falling, partial curve, poor fit].
Regarding `CC(NC(=O)COC(=O)c1ccc[nH]c1=O)c1ccccc1` (configuration not stated), the AC50 under setting [1] is 18.4 µM [rising, single point].
On the same count and under the same terms, to `O=C(NCCc1ccccc1Cl)C1CCC(=O)N(CCCc2ccccc2)C1` (configuration not stated) belongs 14.1 µM [falling, single point].
For the compound `Cc1ccc2occ(/C=N/NC(N)=S)c(=O)c2c1`, the AC50 is 0.0259 µM [rising, full curve, poor fit] under setting [1] and 0.058 µM [rising, full curve] under setting [2].
Take `COC(=O)C1=NN[C@H](C(=O)OC(C)(C)C)[C@H]1c1ccccc1`: the AC50 under setting [1] is 16.4 µM [rising, partial curve, poor fit].
As to `c1ccc(COc2ccc(OCCOCCn3cncn3)cc2)cc1`, under setting [1], the AC50 was 29.1 µM [falling, single point].
In the case of `O=C(COc1ccccc1)Nc1ccccc1Cl`, under setting [1], the AC50 was 35.5 µM [falling, single point].
`Cc1ccc2nc3c(c(Nc4ccccc4)c2c1)CCC3`: the AC50 under setting [1] was 14.1 µM [falling, partial curve].
As for `CCN(CC)c1ccc(/C=C(\C#N)C(N)=S)cc1`, the AC50 under setting [2] was 12.6 µM [falling, partial curve, poor fit].
For `CCCSc1nn2c(=O)c3ccccc3nc2s1`, the AC50 under setting [1] is 5.17 µM [falling, full curve].
Take `CCC(CC)C(=O)Nc1cc([N+](=O)[O-])ccc1Cl`: the AC50 under setting [1] was 29.1 µM [falling, single point].
With `COc1ccc(C(=O)C[n+]2cc(Br)cc3ccccc32)cc1[N+](=O)[O-]`, the AC50 under setting [1] was 0.562 µM [falling, full curve, poor fit].
For the compound `CC1CN(S(=O)(=O)c2cccc(-c3csc(-c4ccccc4)n3)c2)CC(C)O1` (configuration not stated), under setting [1], the AC50 is 29.1 µM [rising, single point].
As to `COc1cc(OC)c2c(-c3cccc(-c4ccc(C(C)=O)cc4)c3)cc(=O)oc2c1`, the AC50 reads like this: under setting [1], 3.26 µM [rising, full curve]; under setting [2], 5.8 µM [falling, full curve].
For the compound `CC1OC(OC2C(OC3C(O[C@H]4CC[C@]5(C)C6C=C[C@]78OC[C@@]9(CC[C@@H](C)[C@H](C)C97)[C@H](O)C[C@@]8(C)[C@]6(C)CC[C@H]5C4(C)C)OC(C)C(O)C3O)OC(CO)C(O)C2O)C(O)C(O)C1O` (some centres not stated), the AC50 is 35.5 µM [falling, single point] under setting [1] and 35.5 µM [rising, partial curve, poor fit] under setting [2].
Consider `CC(=O)Oc1ccc2c(c1)O/C(=C\c1ccncc1)C2=O`, for which, under setting [1], the AC50 was 10 µM [falling, partial curve].
For the compound `COc1cc(NS(C)(=O)=O)c(OC)cc1NC(=O)c1cccc(F)c1`, under setting [1], the AC50 was 3.26 µM [falling, single point].
Take `Cn1c(CCNC(=O)c2ccco2)nc2cc(NC(=O)c3ccccc3)ccc21`: under setting [1], the AC50 was 2.51 µM [falling, partial curve, poor fit].
In the case of `Fc1ccc(-n2ncc3c(NC4CCCCCC4)ncnc32)cc1`, the half-maximal activity concentration (AC50) under setting [1] is 10 µM [falling, partial curve].
For `CCOC(CNC(=O)c1ccc2nc(N3CCC(C)CC3)sc2c1)OCC`, under setting [1], the AC50 was 3.66 µM [falling, full curve].
With `CC(=O)c1cc(C(=O)Nc2ccc(C(=O)O)cc2)oc1C`, the half-maximal activity concentration (AC50) under setting [1] was 23.1 µM [falling, single point].
In the case of `COCCN(CCOC)c1nc(-c2ccccc2)nc2ccccc12`, the AC50 under setting [1] is 35.5 µM [falling, single point].
`Cc1ccc(NC2=C(Cl)C(=O)OC2OC(=O)c2ccco2)cc1` (configuration not stated): the AC50 under setting [1] is 14.6 µM [falling, partial curve].
As to `COc1ccc(S(=O)(=O)N2CCCCCC2)cc1C(=O)N1CCCCC1`, the AC50 under setting [1] is 1.26 µM [falling, full curve].
Turning to `COc1cc2c(=O)n(Cc3ccccc3)c(=O)n(CC(=O)NCCc3ccccc3)c2cc1OC`, the AC50 under setting [1] was 0.13 µM [falling, full curve, poor fit].
For `CCOC(=O)/C=C/CN(C(=O)OC(C)(C)C)S(=O)(=O)N1CC=CC1`, the AC50 under setting [1] is 0.112 µM [falling, full curve, poor fit].
Still for that read-out and setting: next, `Cc1ccc(N/C=C/C(=O)c2cccs2)cc1C`: 11.2 µM [falling, partial curve]; `COC(=O)Cc1nc(NC(=O)c2cccs2)sc1C`: 10 µM [falling, partial curve].
In the case of `CC(=O)c1sc2c(c1OC(=O)c1ccc(Cl)cc1Cl)c(=O)n(-c1ccccc1)c(=S)n2-c1ccccc1`, the AC50 runs as follows: under setting [1], 5.01 µM [falling, full curve]; under setting [2], 3.98 µM [rising, full curve, poor fit].
Turning to `COC(=O)N/N=C/c1cc(Br)ccc1O`, the half-maximal activity concentration (AC50) under setting [1] was 22.4 µM [falling, partial curve, poor fit].
For `COc1cccc(CNC(=O)c2cccc(NC(=O)C3=C(C)OCCS3)c2)c1`, the AC50 under setting [1] was 35.5 µM [falling, single point].
Same read-out and setting: to `O=C(Nc1nccs1)C1CCCN1/C=C/C(=O)C(F)(F)F` (configuration not stated) belongs 35.5 µM [rising, single point].
Turning to `Cc1ccc(N2NC(=O)/C(=C/c3ccc(-c4ccc(Cl)c(C(=O)O)c4)o3)C2=O)cc1C`, under setting [1], the AC50 was 15.8 µM [falling, single point].
In the case of `CCc1ccc(C(O)(C(C)C)C(CN2CCOCC2)c2ccccc2)cc1` (configuration not stated), the AC50 under setting [1] is 10 µM [falling, partial curve, poor fit].
Consider `Cn1cc(CC(=O)N2CCN(c3ccccc3F)CC2)c2ccccc21`, for which the AC50 under setting [1] was 6.51 µM [rising, single point] and the AC50 under setting [2] was 5.17 µM [falling, partial curve, poor fit].
For `NC(=S)N/N=C1\CC(n2nnn(-c3cccc(Cl)c3)c2=S)C2COC1O2` (configuration not stated), under setting [1], the half-maximal activity concentration (AC50) was 3.55 µM [falling, full curve].
`CCOc1ccc(C2=CC(c3cccc(Br)c3)n3c(nc4ccccc43)N2)cc1Cl` (configuration not stated): under setting [1], the AC50 is 11.2 µM [falling, partial curve, poor fit].
`COc1ccc(NC(=O)c2csc3c2CCCCC3)c(OC)c1`: under setting [1], the AC50 was 5.62 µM [rising, single point].
For `NNc1nccc(Nc2ccccc2C(=O)O)n1`, the AC50 under setting [1] is 7.31 µM [falling, partial curve].
Turning to `Cc1cccc(C(=O)NC(=S)N2CCN(C(=S)NC(=O)c3cccc(C)c3)CC2)c1`, under setting [2], the concentration at half-maximal activity (AC50) was 4.61 µM [falling, partial curve, poor fit].
On to `O=C(COC(=O)CCCOc1ccc(Cl)cc1Cl)Nc1cccc(Cl)c1`, for which, under setting [1], the AC50 was 4.11 µM [rising, full curve, poor fit].
Same read-out and setting: next, `COc1cccc(NC(=O)CN(C)C(=O)c2cccnc2Nc2cccc(C(F)(F)F)c2)c1`: 25.9 µM [falling, partial curve, poor fit]; `CN(C)c1cccc(C(=O)NC2CCCCCC2)c1`: 16.4 µM [falling, partial curve]; `O=C(NCc1cccs1)c1csc2ccccc12`: 1.46 µM [rising, full curve, poor fit].
For the compound `Fc1ccc(C2CC(c3ccco3)=NN2c2ccccc2)cc1` (configuration not stated), the AC50 under setting [1] was 0.562 µM [rising, partial curve, poor fit].
Same read-out and setting: next, `O=S(=O)(Nc1ccc(O)c(Sc2nc3ccccc3s2)c1)c1ccc(Cl)cc1`: 12.6 µM [falling, single point]; `Cc1nc(-c2ccc(S(=O)(=O)NCC3CCN(C(=O)OC(C)(C)C)CC3)s2)cs1`: 0.0891 µM [rising, full curve, poor fit].
Still for that read-out and setting: next, `Cc1ncc(CN2CCCC(CCC(=O)NCc3ccccc3F)C2)s1` (configuration not stated): 35.5 µM [rising, single point].
`COc1ccc(S(=O)(=O)N2CCOCC2)cc1Br`: under setting [1], the AC50 was 10 µM [rising, partial curve, poor fit].
In the case of `O=C(c1cnn2c(C(F)(F)F)cc(-c3ccc4c(c3)OCO4)nc12)N1CCCCC1`, the AC50 under setting [1] was 20 µM [rising, single point].
For the compound `CCN(CC)C(=O)C1CCCN(Cc2nc(-c3cnccn3)no2)C1` (configuration not stated), the AC50 under setting [1] was 11.2 µM [rising, partial curve, poor fit].
On to `Cn1c(O)c(N=Nc2ccccc2)c2ccccc21`, for which the AC50 under setting [1] was 1 µM [rising, full curve, poor fit].
Same read-out and setting: next, `O=C(/C=C/NNC(=O)c1ccccc1)c1ccc([N+](=O)[O-])cc1`: 6.31 µM [falling, single point].
`CC(=O)Nc1ccc(S(=O)(=O)N[C@@H](C)C(=O)Nc2ccc(N3CCOCC3)cc2)cc1`: the AC50 under setting [1] is 35.5 µM [rising, partial curve, poor fit].

(Values after PubChem BioAssay AID493014 (National Center for Advancing Translational Sciences (NCATS), 2011).)
